Data published in the supplement of paper PMC10849652.
This is one part of the list.

By UniProt entry, the sequences of proteins in these tests, tags left out. Where a name states a change or a piece, a line headed by the entry shows the natural chain unless it says otherwise.
UniProt Q8TDR2: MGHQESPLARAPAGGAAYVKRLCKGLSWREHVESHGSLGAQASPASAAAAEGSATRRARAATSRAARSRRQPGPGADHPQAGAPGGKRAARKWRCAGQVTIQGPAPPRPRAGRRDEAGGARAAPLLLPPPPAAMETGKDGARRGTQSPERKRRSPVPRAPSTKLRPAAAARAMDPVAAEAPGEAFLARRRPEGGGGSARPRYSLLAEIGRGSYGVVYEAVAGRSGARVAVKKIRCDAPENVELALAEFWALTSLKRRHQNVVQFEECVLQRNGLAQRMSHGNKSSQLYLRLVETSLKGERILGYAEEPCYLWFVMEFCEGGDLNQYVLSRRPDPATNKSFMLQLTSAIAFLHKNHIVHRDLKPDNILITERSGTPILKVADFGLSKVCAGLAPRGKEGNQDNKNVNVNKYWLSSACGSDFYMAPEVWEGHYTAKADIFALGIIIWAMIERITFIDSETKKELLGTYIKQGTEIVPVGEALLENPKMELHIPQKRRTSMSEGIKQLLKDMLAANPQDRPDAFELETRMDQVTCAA
UniProt Q9NZ72: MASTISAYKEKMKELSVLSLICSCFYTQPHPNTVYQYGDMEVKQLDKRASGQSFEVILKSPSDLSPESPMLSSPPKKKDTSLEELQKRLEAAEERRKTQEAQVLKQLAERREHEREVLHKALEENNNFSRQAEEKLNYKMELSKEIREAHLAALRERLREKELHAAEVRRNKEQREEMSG
UniProt Q93075: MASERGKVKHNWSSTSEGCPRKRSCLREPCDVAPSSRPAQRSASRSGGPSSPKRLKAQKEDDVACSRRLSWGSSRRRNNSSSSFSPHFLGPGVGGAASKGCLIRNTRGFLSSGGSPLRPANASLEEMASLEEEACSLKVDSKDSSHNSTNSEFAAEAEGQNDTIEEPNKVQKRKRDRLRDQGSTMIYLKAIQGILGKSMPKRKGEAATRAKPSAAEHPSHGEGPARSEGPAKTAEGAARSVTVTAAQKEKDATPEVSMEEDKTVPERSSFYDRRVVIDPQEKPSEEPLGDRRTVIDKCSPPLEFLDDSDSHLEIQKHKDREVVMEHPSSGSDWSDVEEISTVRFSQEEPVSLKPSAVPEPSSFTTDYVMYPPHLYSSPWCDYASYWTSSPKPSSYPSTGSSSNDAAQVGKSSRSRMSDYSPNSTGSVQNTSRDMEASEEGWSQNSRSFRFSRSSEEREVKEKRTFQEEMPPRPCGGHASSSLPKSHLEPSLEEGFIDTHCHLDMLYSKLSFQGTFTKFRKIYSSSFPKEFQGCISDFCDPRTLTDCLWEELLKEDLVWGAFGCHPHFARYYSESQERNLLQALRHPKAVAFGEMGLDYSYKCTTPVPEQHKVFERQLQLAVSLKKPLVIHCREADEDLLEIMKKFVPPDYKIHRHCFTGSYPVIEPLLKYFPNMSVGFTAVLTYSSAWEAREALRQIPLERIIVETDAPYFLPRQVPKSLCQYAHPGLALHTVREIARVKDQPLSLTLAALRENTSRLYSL
UniProt Q9UL54: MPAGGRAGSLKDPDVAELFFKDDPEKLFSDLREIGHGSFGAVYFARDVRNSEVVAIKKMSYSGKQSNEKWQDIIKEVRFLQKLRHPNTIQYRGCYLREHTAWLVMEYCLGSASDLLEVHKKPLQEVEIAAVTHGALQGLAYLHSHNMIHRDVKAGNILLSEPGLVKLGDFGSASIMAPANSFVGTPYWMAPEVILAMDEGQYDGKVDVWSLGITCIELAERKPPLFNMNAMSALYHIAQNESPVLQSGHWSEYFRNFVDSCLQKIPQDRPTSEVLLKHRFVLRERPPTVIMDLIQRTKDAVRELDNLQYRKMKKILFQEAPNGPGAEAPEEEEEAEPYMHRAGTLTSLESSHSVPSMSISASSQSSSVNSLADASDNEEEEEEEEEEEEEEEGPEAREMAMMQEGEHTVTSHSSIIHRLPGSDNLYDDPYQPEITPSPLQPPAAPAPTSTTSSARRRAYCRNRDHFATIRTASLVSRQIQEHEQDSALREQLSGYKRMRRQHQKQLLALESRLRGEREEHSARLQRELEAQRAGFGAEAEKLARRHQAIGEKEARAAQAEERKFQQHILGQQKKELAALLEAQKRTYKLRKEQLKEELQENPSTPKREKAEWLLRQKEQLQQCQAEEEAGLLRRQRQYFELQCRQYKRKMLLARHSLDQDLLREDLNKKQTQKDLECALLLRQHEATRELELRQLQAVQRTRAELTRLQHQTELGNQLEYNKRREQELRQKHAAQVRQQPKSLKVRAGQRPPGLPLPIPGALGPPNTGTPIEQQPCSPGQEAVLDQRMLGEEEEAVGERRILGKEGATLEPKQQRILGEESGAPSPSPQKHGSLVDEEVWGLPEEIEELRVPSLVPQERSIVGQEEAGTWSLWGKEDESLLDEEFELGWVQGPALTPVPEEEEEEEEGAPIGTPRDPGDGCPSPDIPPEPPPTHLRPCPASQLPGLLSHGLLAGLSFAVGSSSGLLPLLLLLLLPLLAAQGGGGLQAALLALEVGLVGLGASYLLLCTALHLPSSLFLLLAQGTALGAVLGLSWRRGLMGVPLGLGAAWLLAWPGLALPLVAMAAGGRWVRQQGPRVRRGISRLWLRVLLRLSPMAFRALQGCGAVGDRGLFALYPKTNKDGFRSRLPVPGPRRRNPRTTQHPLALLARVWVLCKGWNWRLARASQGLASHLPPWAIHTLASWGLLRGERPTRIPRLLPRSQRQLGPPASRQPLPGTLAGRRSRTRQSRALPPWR
UniProt Q9BXI6: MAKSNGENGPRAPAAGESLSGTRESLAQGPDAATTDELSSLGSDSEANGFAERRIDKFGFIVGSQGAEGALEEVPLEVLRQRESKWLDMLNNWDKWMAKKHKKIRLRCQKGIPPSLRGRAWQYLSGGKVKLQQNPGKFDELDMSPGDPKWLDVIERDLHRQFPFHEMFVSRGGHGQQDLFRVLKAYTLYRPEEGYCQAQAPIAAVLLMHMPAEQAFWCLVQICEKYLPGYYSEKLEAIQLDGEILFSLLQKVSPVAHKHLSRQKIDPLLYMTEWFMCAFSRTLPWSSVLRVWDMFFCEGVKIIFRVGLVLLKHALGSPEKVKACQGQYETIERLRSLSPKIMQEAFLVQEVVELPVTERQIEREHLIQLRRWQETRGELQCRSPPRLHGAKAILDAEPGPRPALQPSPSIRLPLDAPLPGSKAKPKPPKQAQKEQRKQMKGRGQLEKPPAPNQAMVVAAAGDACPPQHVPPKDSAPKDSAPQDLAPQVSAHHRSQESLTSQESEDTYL
UniProt Q9Y6J9: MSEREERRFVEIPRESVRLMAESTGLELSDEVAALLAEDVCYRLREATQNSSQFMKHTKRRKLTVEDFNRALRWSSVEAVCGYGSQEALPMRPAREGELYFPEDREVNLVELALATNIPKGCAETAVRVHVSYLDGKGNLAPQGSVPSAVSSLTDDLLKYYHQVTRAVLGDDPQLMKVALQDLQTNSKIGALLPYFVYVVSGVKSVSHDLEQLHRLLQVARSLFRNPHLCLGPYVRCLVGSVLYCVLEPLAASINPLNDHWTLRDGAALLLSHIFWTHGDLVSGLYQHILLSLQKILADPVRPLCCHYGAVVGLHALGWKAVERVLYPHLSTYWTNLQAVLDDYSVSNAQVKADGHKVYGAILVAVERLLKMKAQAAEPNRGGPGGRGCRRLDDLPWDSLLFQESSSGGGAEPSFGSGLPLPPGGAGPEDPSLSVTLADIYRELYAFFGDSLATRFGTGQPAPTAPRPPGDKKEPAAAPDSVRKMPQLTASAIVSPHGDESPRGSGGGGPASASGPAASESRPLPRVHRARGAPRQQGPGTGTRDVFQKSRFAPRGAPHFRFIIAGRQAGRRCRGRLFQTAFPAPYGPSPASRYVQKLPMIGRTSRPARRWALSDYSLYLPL
UniProt Q13148, whole entry, looked up: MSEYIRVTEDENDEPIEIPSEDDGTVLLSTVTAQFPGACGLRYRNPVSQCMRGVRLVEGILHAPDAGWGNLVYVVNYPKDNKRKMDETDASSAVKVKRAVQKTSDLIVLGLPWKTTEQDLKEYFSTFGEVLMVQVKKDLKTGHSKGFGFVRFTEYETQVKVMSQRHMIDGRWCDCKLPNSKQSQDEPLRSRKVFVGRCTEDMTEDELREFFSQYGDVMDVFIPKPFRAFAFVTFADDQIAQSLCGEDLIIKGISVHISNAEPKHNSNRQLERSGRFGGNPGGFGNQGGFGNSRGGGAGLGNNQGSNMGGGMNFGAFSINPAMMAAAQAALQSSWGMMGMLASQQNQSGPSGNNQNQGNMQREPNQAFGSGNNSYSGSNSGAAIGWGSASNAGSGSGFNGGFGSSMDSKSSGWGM
UniProt Q9UH65: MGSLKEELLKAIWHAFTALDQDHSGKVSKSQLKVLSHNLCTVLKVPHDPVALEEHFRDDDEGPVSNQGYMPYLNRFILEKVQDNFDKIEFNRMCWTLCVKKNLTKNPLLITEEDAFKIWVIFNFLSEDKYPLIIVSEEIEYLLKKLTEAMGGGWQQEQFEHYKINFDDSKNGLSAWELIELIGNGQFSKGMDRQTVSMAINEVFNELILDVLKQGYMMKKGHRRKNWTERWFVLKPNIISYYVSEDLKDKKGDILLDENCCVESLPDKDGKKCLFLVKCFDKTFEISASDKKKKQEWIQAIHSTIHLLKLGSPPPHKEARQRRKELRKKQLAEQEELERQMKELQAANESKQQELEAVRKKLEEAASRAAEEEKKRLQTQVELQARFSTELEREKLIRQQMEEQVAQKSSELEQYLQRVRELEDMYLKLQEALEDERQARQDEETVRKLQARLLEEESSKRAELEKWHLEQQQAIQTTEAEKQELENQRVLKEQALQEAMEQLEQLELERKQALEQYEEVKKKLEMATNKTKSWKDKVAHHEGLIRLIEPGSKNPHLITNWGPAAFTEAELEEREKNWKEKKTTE
UniProt Q8NBK3: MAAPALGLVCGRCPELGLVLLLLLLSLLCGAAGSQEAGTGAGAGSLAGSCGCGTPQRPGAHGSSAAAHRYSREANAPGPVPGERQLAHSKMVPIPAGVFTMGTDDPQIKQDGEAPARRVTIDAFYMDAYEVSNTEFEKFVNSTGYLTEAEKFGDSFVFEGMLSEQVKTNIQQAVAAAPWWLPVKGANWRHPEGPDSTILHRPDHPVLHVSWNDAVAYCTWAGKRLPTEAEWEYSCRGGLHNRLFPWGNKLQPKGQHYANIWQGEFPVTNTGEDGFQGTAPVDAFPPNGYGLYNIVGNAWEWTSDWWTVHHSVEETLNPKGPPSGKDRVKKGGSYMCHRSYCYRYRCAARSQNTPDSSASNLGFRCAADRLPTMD
UniProt Q8WUJ0: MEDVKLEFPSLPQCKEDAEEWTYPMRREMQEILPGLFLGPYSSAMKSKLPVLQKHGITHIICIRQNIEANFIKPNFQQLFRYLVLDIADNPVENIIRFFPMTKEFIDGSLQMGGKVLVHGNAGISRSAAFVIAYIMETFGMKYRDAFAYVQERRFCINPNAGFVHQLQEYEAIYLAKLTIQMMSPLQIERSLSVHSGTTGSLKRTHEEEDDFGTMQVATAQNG
UniProt Q15542, whole entry, looked up: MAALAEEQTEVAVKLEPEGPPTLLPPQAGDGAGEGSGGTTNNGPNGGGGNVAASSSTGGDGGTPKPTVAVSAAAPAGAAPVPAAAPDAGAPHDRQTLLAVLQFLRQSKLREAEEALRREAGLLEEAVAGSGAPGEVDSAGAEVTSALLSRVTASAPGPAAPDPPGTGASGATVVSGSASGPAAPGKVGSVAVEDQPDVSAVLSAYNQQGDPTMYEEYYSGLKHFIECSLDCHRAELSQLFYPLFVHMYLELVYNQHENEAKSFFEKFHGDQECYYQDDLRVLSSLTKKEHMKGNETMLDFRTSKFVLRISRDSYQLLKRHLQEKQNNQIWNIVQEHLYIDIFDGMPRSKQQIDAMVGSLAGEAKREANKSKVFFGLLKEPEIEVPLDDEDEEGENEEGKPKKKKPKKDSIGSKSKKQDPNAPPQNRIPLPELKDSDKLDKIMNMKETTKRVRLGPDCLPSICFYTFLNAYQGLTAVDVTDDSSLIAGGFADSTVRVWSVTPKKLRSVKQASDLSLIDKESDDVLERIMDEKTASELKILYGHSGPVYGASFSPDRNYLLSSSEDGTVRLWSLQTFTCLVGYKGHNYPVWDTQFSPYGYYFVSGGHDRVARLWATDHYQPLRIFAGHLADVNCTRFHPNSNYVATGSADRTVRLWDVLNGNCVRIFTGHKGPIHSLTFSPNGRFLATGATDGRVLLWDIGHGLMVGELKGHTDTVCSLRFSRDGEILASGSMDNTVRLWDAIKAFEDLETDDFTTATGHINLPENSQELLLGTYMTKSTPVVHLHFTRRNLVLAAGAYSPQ

Key:
Experiment in all cases: log2 fold change, soluble protein after heating vs DMSO (PISA); higher = thermal stabilisation; K562 cells, 10 uM, 30 min; active = over 0.2 and 3.5 SD of the protein, either way, in both replicates (recomputed)
[1] = compound: CC1=C(SC2=C1C(=N[C@H](C3=NN=C(N32)C)CC(=O)N)C4=CC=C(C=C4)Cl)C
Method in brief: (§1)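 K562 cells at 2×10^6 cells/mL were treated for 30 min with 10 μM compound, and aliquots were heated for 3 min over 48°C-58°C before pooling. Extraction used PBS with 0.5% NP-40 at 4°C, and soluble protein was the supernatant after 21,000xg for 90 min, measured by TMTpro 16plex LC-MS/MS with channel sums equalised. Thermal stability values, relative to control samples and from duplicates, are log2 fold changes.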

[2] = compound: CC1=C2C(=CC=C1)N=C(N(C2=O)C3=CC=CC=C3C)CN4C=NC5=C(N=CN=C54)N
Method in brief: as §1

[3] = compound: Cc1sc2c(c1C)C(c1ccc(Cl)cc1)=N[C@@H](CC(=O)OC(C)(C)C)c1nnc(C)n1-2
Method in brief: as §1

[4] = compound: c1ccc([C@@H]2C[C@H]2NC2CCNCC2)cc1
Method in brief: as §1

[5] = compound: C1=CC=C(C=C1)[C@H](COC2=CC3=C(C=C2)NC(=O)N3)NC(=O)C4=CC=CN(C4=O)CC5=CC(=C(C=C5)F)F
Method in brief: as §1

Measured: log2 fold change

SUCO (UniProt Q9UBS9)
inactive: [1] 0.017 | [2] 0.042 | [3] 0.034 | [4] 0.007

SYNJ2 (UniProt O15056)
inactive: [5] 0.06 | [2] 0.046

STK35 (UniProt Q8TDR2)
inactive: [1] -0.016 | [4] -0.015

STMN3 (UniProt Q9NZ72)
inactive: [5] 0.021 | [1] 0.022 | [2] -0.015 | [3] 0.032 | [4] 0.063

TATDN2 (UniProt Q93075)
inactive: [5] -0.044 | [1] -0.067 | [2] -0.037 | [3] 0.069 | [4] 0.071

TAOK2 (UniProt Q9UL54)
inactive: [3] 0.026

TBC1D10A (UniProt Q9BXI6)
inactive: [5] 0.079 | [2] 0.1 | [3] 0.05

TAF6L (UniProt Q9Y6J9)
inactive: [1] -0.209 | [3] 0.048 | [4] 0.073

2 entries picked at random from the list so far:
TATDN2 (UniProt Q93075)
inactive: [5] -0.044 | [1] -0.067 | [2] -0.037 | [3] 0.069 | [4] 0.071

TBC1D10A (UniProt Q9BXI6)
inactive: [5] 0.079 | [2] 0.1 | [3] 0.05

Continuation.

TARDBP (UniProt Q13148)
inactive: [5] -0.143 | [1] -0.17 | [2] -0.06 | [3] 0.004 | [4] 0.187

SWAP70 (UniProt Q9UH65)
inactive: [5] -0.028 | [1] 0.016 | [2] 0.044 | [3] -0.002 | [4] 0.039

SUMF1 isoform 3 (UniProt Q8NBK3)
inactive: [2] -0.062 | [3] 0.034

STYX (UniProt Q8WUJ0)
inactive: [3] -0.082

TAF5 (UniProt Q15542)
inactive: [2] -0.101
